Source: the supplement of paper PMC12819154, “High-throughput peptide-centric local stability assay extends protein–ligand identification to membrane proteins, tissues and bacteria” (Nature Structural & Molecular Biology, 2025)
Some of the results follow. Most entries show no effect beyond the scatter of the controls.

Protein sequences, listed by entry. Tags and fused reporters are not part of them. Lines headed by an entry give the natural chain unless they say otherwise; changes in a name come on top.
UniProt P13984, whole entry: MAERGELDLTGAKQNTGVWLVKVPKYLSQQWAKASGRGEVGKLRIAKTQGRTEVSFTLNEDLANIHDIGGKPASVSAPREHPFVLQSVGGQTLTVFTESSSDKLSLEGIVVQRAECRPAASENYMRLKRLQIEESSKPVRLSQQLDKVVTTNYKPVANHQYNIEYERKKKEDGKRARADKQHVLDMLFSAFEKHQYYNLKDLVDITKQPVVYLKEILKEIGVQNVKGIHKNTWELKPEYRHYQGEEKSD
UniProt P01127, whole entry: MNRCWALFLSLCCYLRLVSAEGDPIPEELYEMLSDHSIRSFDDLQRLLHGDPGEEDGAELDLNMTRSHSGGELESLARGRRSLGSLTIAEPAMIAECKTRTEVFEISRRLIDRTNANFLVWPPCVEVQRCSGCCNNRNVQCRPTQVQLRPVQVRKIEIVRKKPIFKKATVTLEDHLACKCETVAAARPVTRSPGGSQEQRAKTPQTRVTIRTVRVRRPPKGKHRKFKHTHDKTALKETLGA
UniProt P10155: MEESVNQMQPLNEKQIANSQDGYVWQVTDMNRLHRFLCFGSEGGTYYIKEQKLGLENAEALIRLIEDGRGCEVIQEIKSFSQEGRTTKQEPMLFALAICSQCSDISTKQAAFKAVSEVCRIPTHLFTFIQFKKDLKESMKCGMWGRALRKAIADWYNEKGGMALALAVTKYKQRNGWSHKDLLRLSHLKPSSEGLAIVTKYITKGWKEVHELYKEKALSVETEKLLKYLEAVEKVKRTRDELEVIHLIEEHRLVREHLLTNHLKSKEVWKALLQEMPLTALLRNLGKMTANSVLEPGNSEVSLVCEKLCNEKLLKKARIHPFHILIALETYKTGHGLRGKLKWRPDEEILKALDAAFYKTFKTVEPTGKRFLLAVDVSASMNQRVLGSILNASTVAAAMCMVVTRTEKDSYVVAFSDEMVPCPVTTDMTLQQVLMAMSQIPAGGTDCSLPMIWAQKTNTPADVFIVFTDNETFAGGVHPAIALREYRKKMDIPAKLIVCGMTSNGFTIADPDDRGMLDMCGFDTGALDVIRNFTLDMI
UniProt P07711: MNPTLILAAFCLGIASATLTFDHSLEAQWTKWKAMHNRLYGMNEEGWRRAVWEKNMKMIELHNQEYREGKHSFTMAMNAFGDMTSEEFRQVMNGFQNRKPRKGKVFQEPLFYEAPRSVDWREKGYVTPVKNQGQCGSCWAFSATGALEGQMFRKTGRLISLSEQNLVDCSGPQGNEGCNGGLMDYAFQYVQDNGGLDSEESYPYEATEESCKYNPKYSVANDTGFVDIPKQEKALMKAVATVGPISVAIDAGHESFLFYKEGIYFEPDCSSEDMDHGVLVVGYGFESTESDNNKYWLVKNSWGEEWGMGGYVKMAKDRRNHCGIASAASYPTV
UniProt P0C7P0: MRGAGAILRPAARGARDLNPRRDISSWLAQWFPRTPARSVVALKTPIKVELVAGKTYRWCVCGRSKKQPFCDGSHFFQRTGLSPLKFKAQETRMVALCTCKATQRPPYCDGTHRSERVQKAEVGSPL
UniProt P05455: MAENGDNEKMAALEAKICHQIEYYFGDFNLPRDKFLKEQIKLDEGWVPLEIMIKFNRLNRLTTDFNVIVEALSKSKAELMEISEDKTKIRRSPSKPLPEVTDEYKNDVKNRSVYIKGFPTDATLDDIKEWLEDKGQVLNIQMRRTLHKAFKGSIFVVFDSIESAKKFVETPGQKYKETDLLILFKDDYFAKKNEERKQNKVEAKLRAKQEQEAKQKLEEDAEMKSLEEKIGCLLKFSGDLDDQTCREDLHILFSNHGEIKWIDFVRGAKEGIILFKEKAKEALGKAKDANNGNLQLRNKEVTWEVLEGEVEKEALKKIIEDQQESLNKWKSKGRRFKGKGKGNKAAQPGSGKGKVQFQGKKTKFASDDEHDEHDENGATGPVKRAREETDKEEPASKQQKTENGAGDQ
UniProt P02649, whole entry: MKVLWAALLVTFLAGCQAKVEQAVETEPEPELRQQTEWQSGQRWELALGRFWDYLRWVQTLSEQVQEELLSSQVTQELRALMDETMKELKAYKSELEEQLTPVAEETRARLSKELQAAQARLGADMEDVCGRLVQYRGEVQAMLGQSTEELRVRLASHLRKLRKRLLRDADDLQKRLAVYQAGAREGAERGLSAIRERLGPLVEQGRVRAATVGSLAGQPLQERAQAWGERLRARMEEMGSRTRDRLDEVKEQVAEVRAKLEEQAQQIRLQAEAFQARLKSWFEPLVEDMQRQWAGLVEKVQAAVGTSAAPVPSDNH
UniProt P12277: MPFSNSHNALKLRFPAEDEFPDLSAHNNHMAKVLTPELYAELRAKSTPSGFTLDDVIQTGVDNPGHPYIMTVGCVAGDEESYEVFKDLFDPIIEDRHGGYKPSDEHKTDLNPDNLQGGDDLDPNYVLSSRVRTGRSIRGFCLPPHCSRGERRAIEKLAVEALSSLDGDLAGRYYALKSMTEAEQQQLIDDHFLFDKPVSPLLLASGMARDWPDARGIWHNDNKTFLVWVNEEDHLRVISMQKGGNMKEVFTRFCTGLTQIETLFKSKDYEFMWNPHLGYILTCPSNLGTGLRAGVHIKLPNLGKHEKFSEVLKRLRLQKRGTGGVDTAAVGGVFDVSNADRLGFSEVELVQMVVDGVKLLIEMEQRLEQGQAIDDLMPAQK
UniProt P0DPI2: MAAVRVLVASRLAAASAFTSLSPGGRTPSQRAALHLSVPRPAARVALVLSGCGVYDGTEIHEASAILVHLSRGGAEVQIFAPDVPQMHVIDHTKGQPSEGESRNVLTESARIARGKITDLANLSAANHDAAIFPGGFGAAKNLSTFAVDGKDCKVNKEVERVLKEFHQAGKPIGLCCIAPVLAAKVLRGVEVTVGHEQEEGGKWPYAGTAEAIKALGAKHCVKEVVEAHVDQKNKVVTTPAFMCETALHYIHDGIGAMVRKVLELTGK
UniProt P12955: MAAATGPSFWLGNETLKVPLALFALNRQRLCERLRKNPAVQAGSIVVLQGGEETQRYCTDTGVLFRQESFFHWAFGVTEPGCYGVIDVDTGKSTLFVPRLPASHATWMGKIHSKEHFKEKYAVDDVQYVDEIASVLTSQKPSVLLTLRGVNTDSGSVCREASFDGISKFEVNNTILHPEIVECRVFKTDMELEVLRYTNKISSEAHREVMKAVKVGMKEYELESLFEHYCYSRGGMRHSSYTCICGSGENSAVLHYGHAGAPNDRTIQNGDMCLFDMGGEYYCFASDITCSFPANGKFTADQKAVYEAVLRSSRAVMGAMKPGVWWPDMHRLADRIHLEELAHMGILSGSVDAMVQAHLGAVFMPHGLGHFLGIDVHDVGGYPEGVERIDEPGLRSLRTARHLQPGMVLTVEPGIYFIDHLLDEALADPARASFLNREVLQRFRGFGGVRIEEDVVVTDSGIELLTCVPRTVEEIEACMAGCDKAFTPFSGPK
UniProt P10589: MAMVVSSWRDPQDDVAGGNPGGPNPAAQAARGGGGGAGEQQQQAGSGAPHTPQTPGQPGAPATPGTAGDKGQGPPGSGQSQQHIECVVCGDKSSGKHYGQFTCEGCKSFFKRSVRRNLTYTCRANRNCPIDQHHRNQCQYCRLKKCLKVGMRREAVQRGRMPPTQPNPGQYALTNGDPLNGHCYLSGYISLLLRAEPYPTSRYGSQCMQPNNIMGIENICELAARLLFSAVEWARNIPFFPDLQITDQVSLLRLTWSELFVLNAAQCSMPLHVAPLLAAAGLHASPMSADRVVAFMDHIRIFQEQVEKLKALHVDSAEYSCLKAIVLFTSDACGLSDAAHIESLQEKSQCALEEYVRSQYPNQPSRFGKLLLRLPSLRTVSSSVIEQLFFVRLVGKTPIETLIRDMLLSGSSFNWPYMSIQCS
UniProt P13693: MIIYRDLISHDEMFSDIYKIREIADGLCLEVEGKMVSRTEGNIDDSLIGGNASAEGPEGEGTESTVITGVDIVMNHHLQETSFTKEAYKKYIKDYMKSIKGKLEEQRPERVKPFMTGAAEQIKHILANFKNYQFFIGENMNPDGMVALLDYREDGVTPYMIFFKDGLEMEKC
UniProt P02795: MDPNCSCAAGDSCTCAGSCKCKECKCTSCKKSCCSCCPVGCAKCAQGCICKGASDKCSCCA
UniProt P04899, whole entry: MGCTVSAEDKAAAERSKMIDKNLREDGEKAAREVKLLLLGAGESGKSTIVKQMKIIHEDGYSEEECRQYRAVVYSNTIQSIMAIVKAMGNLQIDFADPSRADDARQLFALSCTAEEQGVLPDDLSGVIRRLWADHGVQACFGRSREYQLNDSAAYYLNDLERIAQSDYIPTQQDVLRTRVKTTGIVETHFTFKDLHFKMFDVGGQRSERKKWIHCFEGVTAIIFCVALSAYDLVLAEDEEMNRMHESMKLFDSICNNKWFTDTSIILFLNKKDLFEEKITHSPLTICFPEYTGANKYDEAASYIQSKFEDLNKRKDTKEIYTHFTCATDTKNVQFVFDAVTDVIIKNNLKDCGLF
UniProt P12814, whole entry: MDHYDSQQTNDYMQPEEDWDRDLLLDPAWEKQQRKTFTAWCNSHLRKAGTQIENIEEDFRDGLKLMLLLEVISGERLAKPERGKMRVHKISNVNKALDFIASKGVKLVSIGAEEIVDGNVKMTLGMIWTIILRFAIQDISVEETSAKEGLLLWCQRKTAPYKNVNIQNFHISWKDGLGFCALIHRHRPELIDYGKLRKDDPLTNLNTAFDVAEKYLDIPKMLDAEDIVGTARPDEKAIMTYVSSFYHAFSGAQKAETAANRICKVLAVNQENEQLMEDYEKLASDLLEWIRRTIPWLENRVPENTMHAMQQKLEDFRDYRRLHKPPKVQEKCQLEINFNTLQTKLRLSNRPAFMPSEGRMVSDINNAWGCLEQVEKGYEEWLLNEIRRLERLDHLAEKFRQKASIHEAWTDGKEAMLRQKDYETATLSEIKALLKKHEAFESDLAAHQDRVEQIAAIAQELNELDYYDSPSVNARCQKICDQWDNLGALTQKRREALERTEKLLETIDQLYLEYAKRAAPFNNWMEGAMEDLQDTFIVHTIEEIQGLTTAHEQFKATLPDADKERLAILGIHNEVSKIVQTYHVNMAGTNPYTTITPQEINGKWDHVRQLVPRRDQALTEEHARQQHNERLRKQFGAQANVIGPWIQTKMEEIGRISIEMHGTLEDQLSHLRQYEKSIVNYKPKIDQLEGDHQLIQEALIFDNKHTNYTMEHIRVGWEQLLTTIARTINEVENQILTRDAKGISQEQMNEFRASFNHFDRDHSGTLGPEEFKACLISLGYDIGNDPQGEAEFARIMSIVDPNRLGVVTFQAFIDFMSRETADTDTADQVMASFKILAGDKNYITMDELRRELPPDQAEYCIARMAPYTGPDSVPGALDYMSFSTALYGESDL
UniProt P0CAP2, whole entry: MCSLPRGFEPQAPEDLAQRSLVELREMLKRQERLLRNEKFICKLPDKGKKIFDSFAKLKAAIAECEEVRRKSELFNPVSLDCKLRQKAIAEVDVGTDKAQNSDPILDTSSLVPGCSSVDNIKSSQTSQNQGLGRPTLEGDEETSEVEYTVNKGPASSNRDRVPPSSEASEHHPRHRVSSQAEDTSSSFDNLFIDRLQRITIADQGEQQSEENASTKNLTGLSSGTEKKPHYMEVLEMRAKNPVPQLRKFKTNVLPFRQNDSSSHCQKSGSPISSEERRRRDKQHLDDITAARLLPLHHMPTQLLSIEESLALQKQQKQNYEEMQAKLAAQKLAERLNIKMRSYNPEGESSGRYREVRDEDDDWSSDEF
UniProt P08567: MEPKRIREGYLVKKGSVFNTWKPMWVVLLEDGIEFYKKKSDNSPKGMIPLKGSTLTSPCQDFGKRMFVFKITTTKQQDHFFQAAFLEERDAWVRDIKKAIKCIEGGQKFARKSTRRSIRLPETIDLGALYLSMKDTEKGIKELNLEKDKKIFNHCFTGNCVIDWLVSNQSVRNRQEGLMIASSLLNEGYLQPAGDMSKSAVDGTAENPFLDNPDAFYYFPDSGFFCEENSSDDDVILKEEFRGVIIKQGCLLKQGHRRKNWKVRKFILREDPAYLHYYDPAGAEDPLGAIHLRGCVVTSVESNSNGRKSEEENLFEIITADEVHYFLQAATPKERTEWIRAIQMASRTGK
UniProt P10124: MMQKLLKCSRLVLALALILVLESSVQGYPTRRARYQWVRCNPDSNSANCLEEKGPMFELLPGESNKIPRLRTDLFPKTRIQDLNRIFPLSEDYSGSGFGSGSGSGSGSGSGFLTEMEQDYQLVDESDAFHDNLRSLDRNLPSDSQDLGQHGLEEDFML
UniProt P07195, whole entry, looked up: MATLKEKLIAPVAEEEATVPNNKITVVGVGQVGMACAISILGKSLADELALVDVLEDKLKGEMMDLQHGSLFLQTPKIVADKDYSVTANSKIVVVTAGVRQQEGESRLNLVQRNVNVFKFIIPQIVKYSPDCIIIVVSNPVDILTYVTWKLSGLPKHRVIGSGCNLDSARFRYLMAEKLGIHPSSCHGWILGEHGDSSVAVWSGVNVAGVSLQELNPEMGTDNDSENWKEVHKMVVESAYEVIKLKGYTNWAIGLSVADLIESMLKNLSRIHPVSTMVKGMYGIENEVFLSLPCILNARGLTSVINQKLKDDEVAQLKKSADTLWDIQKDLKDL
UniProt P0C0S5, whole entry: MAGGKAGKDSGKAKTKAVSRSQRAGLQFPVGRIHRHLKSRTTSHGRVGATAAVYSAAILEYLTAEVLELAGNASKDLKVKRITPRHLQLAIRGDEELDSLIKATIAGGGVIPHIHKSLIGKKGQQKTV

Compound: Cc1nc(Nc2ncc(C(=O)Nc3c(C)cccc3Cl)s2)cc(N2CCN(CCO)CC2)n1 [dasatinib]
Test: log2 fold change of tryptic peptide abundance, ligand vs vehicle (limited proteolysis) (log2 ratio); higher = more trypsin-susceptible (destabilized)
Conditions: ligand concentration: 5 uM; sample: K562 cleared lysate

Target	log2 fold change
GTF2F2 (peptide sequence: LQIEESSKPVR, peptide start residue: 130) (UniProt P13984)	-0.176
PRKAR1A (peptide sequence: ILMGSTLR, peptide start residue: 234) (UniProt P10644)	-0.121
UniProt P01127 (peptide sequence: KFKHTHDK, peptide start residue: 225)	0.0862
UniProt P10155 (peptide sequence: LSHLKPSSEGLAIVTK, peptide start residue: 185)	0.332
SERPINC1 (peptide sequence: ATEDEGSEQKIPEATNR, peptide start residue: 62) (UniProt P01008)	0.342
CTSL (peptide sequence: EKGYVTPVK, peptide start residue: 122) (UniProt P07711)	-0.0146
KRT18 (peptide sequence: KNHEEEVK, peptide start residue: 215) (UniProt P05783)	-0.349
MYH3 (peptide sequence: REAEFLK, peptide start residue: 1168) (UniProt P11055)	-0.0561
HMBS (peptide sequence: FPHLEFR, peptide start residue: 158) (UniProt P08397)	-0.142
CISD3 (peptide sequence: MVALCTCK, peptide start residue: 94) (UniProt P0C7P0)	-0.569
SSB (peptide sequence: DANNGNLQLR, peptide start residue: 288) (UniProt P05455)	0.111
PTPRC (peptide sequence: NNHQEDKIEFDNEVDKVK, peptide start residue: 1239) (UniProt P08575)	-0.407
APOE (peptide sequence: LKSWFEPLVEDMQR, peptide start residue: 279) (UniProt P02649)	0.431
UniProt P04350 (peptide sequence: GLKMAATFIGNSTAIQELFKR, peptide start residue: 360)	-0.457
GALT (peptide sequence: DRETATIA, peptide start residue: 372) (UniProt P07902)	0.253
APOB (peptide sequence: LDNIYSSDKFYK, peptide start residue: 1770) (UniProt P04114)	0.0929
CKB (peptide sequence: VLTPELYAELR, peptide start residue: 33) (UniProt P12277)	-0.122
UniProt P0DMM9 (peptide sequence: AHPEPGTWDSFLEK, peptide start residue: 148)	0.12

A run of entries from the list above, as a working copy:
Target	log2 fold change
SSB (peptide sequence: DANNGNLQLR, peptide start residue: 288) (UniProt P05455)	0.111
PTPRC (peptide sequence: NNHQEDKIEFDNEVDKVK, peptide start residue: 1239) (UniProt P08575)	-0.407
APOE (peptide sequence: LKSWFEPLVEDMQR, peptide start residue: 279) (UniProt P02649)	0.431

Additional records:

Target	log2 fold change
UniProt P0DPI2 (peptide sequence: NLSTFAVDGKDCK, peptide start residue: 142)	0.722
PEPD (peptide sequence: AFTPFSGPK, peptide start residue: 485) (UniProt P12955)	0.0435
COL1A1 (peptide sequence: QGPSGASGER, peptide start residue: 985) (UniProt P02452)	0.144
UniProt P10589 (peptide sequence: SQCALEEYVR, peptide start residue: 341)	-0.211
TPT1 (peptide sequence: DLISHDEMFSDIYK, peptide start residue: 6) (UniProt P13693)	0.277
MT2A (peptide sequence: GASDKCSCCA, peptide start residue: 52) (UniProt P02795)	0.165
GNAI2 (peptide sequence: MIDKNLR, peptide start residue: 18) (UniProt P04899)	-0.264
DMD (peptide sequence: EGPYTVDAIQK, peptide start residue: 2608) (UniProt P11532)	0.564
UniProt P0CJ78 (peptide sequence: AAHAPPAAAAEAPK, peptide start residue: 461)	-0.639
CAPNS1 (peptide sequence: TDGFGIDTCR, peptide start residue: 136) (UniProt P04632)	-0.0982
ACTN1 (peptide sequence: LSNRPAFMPSEGR, peptide start residue: 347) (UniProt P12814)	0.242
POLR2M (peptide sequence: FICKLPDKGK, peptide start residue: 40) (UniProt P0CAP2)	-0.421
UniProt P09086 (peptide sequence: IKLGFTQGDVGLAMGK, peptide start residue: 300)	0.294
PLEK (peptide sequence: ELNLEKDKK, peptide start residue: 142) (UniProt P08567)	0.434
SRGN (peptide sequence: GPMFELLPGESNKIPR, peptide start residue: 54) (UniProt P10124)	-0.207
LDHB (peptide sequence: VIGSGCNLDSAR, peptide start residue: 158) (UniProt P07195)	-0.129
UniProt P08913 (peptide sequence: GKARASQVK, peptide start residue: 334)	-0.0754
UniProt P0C0S5 (peptide sequence: GDEELDSLIK, peptide start residue: 93)	0.053
